Data: PubChem BioAssay AID504842 (National Center for Advancing Translational Sciences (NCATS), 2011)
About 100 (0.03%) of roughly 330,000 compounds were called active. Inconclusive results, whose numbers are uncertain, are shown with a selection of clear calls. Calls come from the whole dose curve; as a rule, active = well fitted inhibition curve with a large enough effect; inconclusive = small, poorly fitted or top-dose-only effect; inactive = flat fitted curve, though single readings scatter. Potencies of inconclusive entries are doubtful fits and often do not repeat.

tested on: Chaperonin Mm-Cpn (Methanococcus maripaludis); test: Inhibitors of TCP-1 ring complex (TRiC) of Methanococcus maripaludis (MmCpn): qHTS; conditions: purified Mm-Cpn ATPase, ADP Transcreener TR-FRET; note: nearly all actives have a fitted effect of over 80% in size;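 for Potency: enzyme at 25 nM with ATP substrate at 10 µM during the reaction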
Source text: The eukaryotic chaperonin TRiC (for TCP-1 ring complex) is an essential and conserved chaperone required for the folding and activation of 10-15% of the proteins encoded by the human genome. […] The TRiC complex consist of two stacked 7-9 membered rings, each containing a central cavity. Substrates are folded within the cavity in an ATP-dependent manner. TRiC is a complex of eight different, essential proteins. As each of the genes encoding the eight subunits is essential for cell viability and no protocol has been developed to over-express this enzyme to high levels. That is why several groups studying the TRiC chaperonin have turned to the archaeal homolog of TRiC, Methanococcus maripaludis (Mm-CPN), and have used this enzyme as a model system for the study of the type II chaperonin family. Small molecule inhibitors of the Mm-CPN enzyme would be extremely useful to study the mechanism of chaperonin activity. Importantly, TRiC and Mm-CPN both require ATP hydrolysis for function. Furthermore, the ATP binding sites are highly conserved among these type II chaperonins. This provides us with an easy, well tested and straightforward assay to identify inhibitors of chaperonin activity. The Mm-CPN assay was developed in 1536-well plate format using the HTRF Transcreener ADP assay kit (Cisbio, Bedford, MA). This assay applied the time resolved fluorescence resonance energy transfer (TR-FRET) principle. ATP in the presence of Mm-CPN is converted to ADP + Pi. An antibody labeled with Eu3+-Cryptate specific and bound to ADP labeled with […] (d2) competes with the unlabeled ADP generated by Mm-CPN. The resulting TR-FRET signal is inversely proportional to the concentration of ADP in the sample. In this assay a reduction in TR-FRET signal is observed with ATP turnover. NIH Chemical Genomics Center [NCGC] NIH Molecular Libraries Probe Centers Network [MLPCN] MLPCN Grant: DA030554-01A1 Assay Submitter (PI): Judith Frydman, Stanford University
Purified Mm-CPN was supplied by the laboratory of Dr. Judith Frydman. Protein samples were stored at -80C as single use aliquots. Protein was thawed in ambient temperature water bath and placed on ice once thawed. Buffer was prepared fresh day of screen. The buffer composition below was used to prepare the working solution of the Mm-CPN protein and ATP substrate. The buffer is comprised of 30 mM TRIS pH 7.4, 100mM KCl, 5mM MgCl2, and 1mM DTT. A final concentration of 25nM Mm-CPN and 10uM ATP per well were used in the screen. Instructions according to the manufacturer were followed for the ADP Transcreener kit. Used 1536 well Greiner white, medium binding (MB), solid bottom plates. Plates were read on the PerkinElmer EnVision plate reader using Excitation = 320 nm and Emission = […], 665 nm. Protocol- 1.Dispense 1.5ul per well of working [Mm-CPN] = 50nM (or 75 ng / well) 2.Spin plate at 1000 rpm for 30 seconds 3.23nl of compound transferred per well 4.Incubate at 37degC for 10 minutes 5.Dispense 1.5ul per well of working [ATP] = 20uM 6.Incubate at 37degC for 30 minutes 7.Dispense 3ul per well of Anti-ADP Cryptate / ADP-d2 mix (prepared as instructed by Cisbio) 8.Incubate at ambient for 30 minutes 9.Read using EnVision
Potency is the fitted concentration of half-maximal effect.

Compound	Potency
COc1ccc(-c2nc(NC(C)=O)sc2-c2ccc(OC)cc2)cc1	inconclusive: 178 µM [inhibitor, partial curve]
CSc1c(SCc2ccccc2)cnn(-c2ccccc2)c1=O	inconclusive: 56.2 µM [inhibitor, partial curve]
O=C(CNC(=O)c1ccc(Br)o1)Nc1ccc(N2CCCCCC2)cc1	inconclusive: 251 µM [inhibitor, partial curve, poor fit]
CC(NC(=O)COC(=O)c1cn(-c2ccccc2)nc1-c1cccs1)c1ccccc1 (stereo unspecified)	active: 50.1 µM
CN(C)C(=O)CCCCCCCCC(=O)N(C)C	inconclusive: 15.8 µM [inhibitor, single point]
CCn1cc(-c2n[nH]c(=S)n2-c2ccc(C)cc2Br)c(=O)c2ccc(C)nc21	inconclusive: 20 µM [inhibitor, single point]
Cc1ccc2nc(-c3ccccc3)cc(C(=O)N(C)CC(=O)Nc3ccccc3Br)c2c1	inconclusive: 100 µM [inhibitor, single point]
O=C(Nc1nc(-c2cccs2)cs1)c1ccc(Cl)s1	inconclusive: 63.1 µM [inhibitor, partial curve, poor fit]
Cc1c(NC(=S)N/N=C/c2ccc(Br)cc2)c(=O)n(-c2ccccc2)n1C	inconclusive: 22.4 µM [inhibitor, single point]
CN1CCN(c2ccc(S(=O)(=O)N3CCCCC3)cc2NC(=O)COc2ccc(F)cc2)CC1	inactive
Cc1ccc(NC(=O)CSC2=C(C#N)C(c3ccc4c(c3)OCO4)C3=C(CCCC3=O)N2)c(C)c1 (stereo unspecified)	inconclusive: 15.8 µM [inhibitor, single point]
CC(OC(=O)c1cccc(-n2cnnn2)c1)C(=O)NC1(C#N)CCCCC1 (stereo unspecified)	inconclusive: 22.4 µM [inhibitor, single point]
Cc1ccccc1C(=O)N1CCC(n2nccc2NC(=O)CCOc2ccccc2)CC1	inconclusive: 100 µM [inhibitor, single point]
CCCNC(=O)c1ccc(-c2nc3ccccc3s2)s1	inactive
O=C(CN1CCN(Cc2ccccc2)CC1)Nc1ccc(-n2cnnn2)cc1	inconclusive: 100 µM [inhibitor, single point]
Cc1ccccc1C(=O)N=c1ccn(-c2nc3ccccc3nc2NS(=O)(=O)c2ccccc2)cc1	inconclusive: 200 µM [inhibitor, partial curve, poor fit]
Cc1cccc2cc(CN(Cc3ccco3)C(c3nnnn3CCc3ccccc3)C(C)C)c(=O)[nH]c12 (stereo unspecified)	inconclusive: 141 µM [inhibitor, partial curve, poor fit]
CC(=O)c1c(C)nc(-c2ccc(Cl)cc2)nc1NC(=O)C(C)C	inactive
CC(=O)/C(=N/Nc1cccc(C)c1)N1CCOCC1	inactive
CC(C)c1ccc2oc(-c3cc(N)ccc3O)nc2c1	inactive
CC1(C)Cc2c(c(N3CCOCC3)nc3sc(-c4ccc(C(=O)O)o4)c(N)c23)CO1	inconclusive: 100 µM [inhibitor, single point]
COc1ccc(Cn2c(C3CC3)nc3ccc(NC(=O)c4cccnc4)cc3c2=O)cc1	inconclusive: 100 µM [inhibitor, single point]

Compound	Potency
COc1ccc(NS(=O)(=O)c2ccc(S(=O)(=O)N3CCCC3)cc2)cc1	inconclusive: 100 µM [inhibitor, single point]
O=C(COc1ncnc2scc(-c3ccc(F)cc3)c12)NCc1ccco1	inconclusive: 56.2 µM [inhibitor, single point]
COc1ccc(-c2nn3c(-c4ccccc4)nnc3s2)cc1OC	inconclusive: 39.8 µM [inhibitor, partial curve, poor fit]
O=C(COC(=O)/C=C/c1cccc(Cl)c1)NC1CCCC1	inactive
Cc1ccc2ccc(S(=O)(=O)n3nc(C)cc3C)cc2c1	inconclusive: 5.62 µM [inhibitor, single point]
O=C(COC(=O)CNC(=O)c1ccccc1)Nc1ccc(Cl)cn1	inconclusive: 89.1 µM [inhibitor, single point]
CCc1cc2c(SCC(=O)C(C#N)=C3N(C)c4ccccc4N3C)ncnc2s1	inconclusive: 89.1 µM [inhibitor, single point]
COc1ccc(Nc2oc(COc3ccc(Cl)cc3)nc2C#N)cc1	inactive
COc1ccc(C(CNC(=O)c2cccc3cccnc23)N(C)C)cc1 (stereo unspecified)	inconclusive: 100 µM [inhibitor, single point]
CC(=O)Nc1ccc(OCC(O)Cn2c3ccccc3c3ccccc32)c(C)c1 (stereo unspecified)	inconclusive: 22.4 µM [inhibitor, single point]
COc1ccccc1NC(=O)CSc1nc2sc3c(c2c(=O)n1-c1ccccc1)CCN(C)C3	inconclusive: 89.1 µM [inhibitor, partial curve, poor fit]
COc1ccccc1CC(=O)Nc1ccc(-c2noc(COc3ccc(Br)cc3)n2)cc1	inconclusive: 70.8 µM [inhibitor, single point]
NC(=O)c1ccc(SCC(=O)OCC(=O)N2CCCCC2)c([N+](=O)[O-])c1	inactive
N#Cc1c(NC(=O)c2ccc(Cn3cc(Br)cn3)o2)sc2c1CCCCCC2	inconclusive: 56.2 µM [inhibitor, single point]
CCOC(=O)c1c(C)n(-c2ccc(C)cc2)c2ccc(OCC(O)CNCCCO)cc12 (stereo unspecified)	inconclusive: 50.1 µM [inhibitor, single point]
COC(=O)C1=C(CS(=O)(=O)c2ccc(Cl)cc2)NC(=O)NC1c1ccc(O)c(OC)c1 (stereo unspecified)	inconclusive: 63.1 µM [inhibitor, single point]
COCCCNC(=O)/C=C/c1ccc(Cl)cc1Cl	inactive
COC(=O)C1CCN(C(=O)COC(=O)c2n[nH]c3ccccc23)CC1	inactive
COC(=O)c1c(-c2ccc(C)cc2)csc1NC(=O)Cc1ccc(OC)c(OC)c1	inconclusive: 316 µM [inhibitor, partial curve, poor fit]
COc1ccc(/C=C2/C(=O)N(c3nc4ccccc4s3)N=C2CSc2ccc(Cl)cc2)cc1	inconclusive: 112 µM [inhibitor, partial curve, poor fit]
O=C(Cc1sc(Nc2ccccc2)nc1-c1ccccc1)NCc1ccccc1	inconclusive: 70.8 µM [inhibitor, partial curve, poor fit]
CCCc1cc(=O)n2[nH]c(-c3ccc(OC)cc3)nc2n1	inconclusive: 100 µM [inhibitor, single point]

Reformatted comma-delimited: two of the compounds above.
Compound,Potency
CCn1cc(-c2n[nH]c(=S)n2-c2ccc(C)cc2Br)c(=O)c2ccc(C)nc21,"inconclusive: 20 µM [inhibitor, single point]"
CCOC(=O)c1c(C)n(-c2ccc(C)cc2)c2ccc(OCC(O)CNCCCO)cc12 (stereo unspecified),"inconclusive: 50.1 µM [inhibitor, single point]"

Continuation:

Compound	Potency
CCCNC(=S)Nc1ccc2nc(-c3ccccn3)c(-c3ccccn3)nc2c1	inactive
CC(C)c1cc(C(=O)N2CCCC(N3CCN(c4ccccc4F)CC3)C2)nc(N)n1 (stereo unspecified)	inconclusive: 28.2 µM [inhibitor, single point]
CS(=O)(=O)N(CC(O)Cn1c2ccccc2c2ccccc21)c1cccc2ccccc12 (stereo unspecified)	inconclusive: 100 µM [inhibitor, partial curve, poor fit]
CCCCn1c(=O)[nH]c(=O)c2c1nc(-c1ccc(-c3ccccc3Br)o1)n2CCOC	inactive
Cc1ccc(CN(CC(O)COc2cccc3[nH]cc(C)c23)C(C)(C)C)cc1 (stereo unspecified)	inactive
NC(=O)[C@H](Cc1cc2ccccc2s1)NC(=O)[C@@H]1CC2(CC(c3cccc(NC(=O)[C@@H]4CCC(=O)N4)c3)=NO2)CN1C(=O)c1ccccc1 (stereo partly specified)	inactive
COC(=O)c1ccccc1NC(=O)c1cc2sccc2n1C	inconclusive: 89.1 µM [inhibitor, single point]
O=C(CSCC(=O)OCC(=O)c1ccc(Br)cc1)Nc1ccc(Br)cc1	inconclusive: 708 µM [inhibitor, partial curve, poor fit]
CCOC(=O)C1CCCN(Cc2cc(Br)ccc2OC)C1 (stereo unspecified)	inconclusive: 89.1 µM [inhibitor, single point]
COc1ccc2c(-c3ccc(OCCN4CCOCC4)cc3)c(-c3ccccc3OC)sc2c1	active: 31.6 µM
COC(=O)c1c(NC(=O)CSc2nc3nc(C)cc(C)n3n2)sc(C)c1C	inconclusive: 17.8 µM [inhibitor, single point]
CCOc1ccc(-n2nc3ccc(NC(=O)c4ccc5c(c4)OCCO5)cc3n2)cc1	inactive
COCC(=O)N1CCC(Oc2ccc(C(=O)NCc3cc(C)n(C)n3)cc2)CC1	inactive
Cc1ccc2nc(N3C(=O)C(O)=C(C(=O)c4ccco4)C3c3cccs3)sc2c1 (stereo unspecified)	inconclusive: 224 µM [inhibitor, partial curve, poor fit]
Cc1ccccc1-c1nnc(SCc2ccccc2)o1	inactive
CC(=O)Nc1ccc(CN2CCN(C3CCCC3)C(CCO)C2)cc1 (stereo unspecified)	inactive
Cc1ccc(S(=O)(=O)N2CCC(C(=O)Nc3ccc(N4CCOCC4)cc3)CC2)cc1C	inactive
O=c1c(-c2cc3ccccc3o2)[n+]([O-])c2ccccc2n1OCc1ccccn1	inconclusive: 89.1 µM [inhibitor, single point]
Cc1cccc2cc(C#N)c(SCC(=O)N3CC(=O)Nc4ccccc43)nc12	inconclusive: 89.1 µM [inhibitor, single point]
O=C(Nc1cccc(Cl)c1)c1csc(-c2ccccc2)n1	inconclusive: 100 µM [inhibitor, partial curve, poor fit]
CC[n+]1c(/C=C/c2ccc(N(C)C)cc2)ccc2ccccc21	inconclusive: 141 µM [inhibitor, partial curve, poor fit]
COc1ccc(N(CC(=O)N/N=C/c2cccs2)S(=O)(=O)c2ccccc2)cc1	inconclusive: 31.6 µM [inhibitor, single point]

Among those listed so far, these have bromine:
Compound	Potency
O=C(CNC(=O)c1ccc(Br)o1)Nc1ccc(N2CCCCCC2)cc1	inconclusive: 251 µM [inhibitor, partial curve, poor fit]
CCn1cc(-c2n[nH]c(=S)n2-c2ccc(C)cc2Br)c(=O)c2ccc(C)nc21	inconclusive: 20 µM [inhibitor, single point]
Cc1ccc2nc(-c3ccccc3)cc(C(=O)N(C)CC(=O)Nc3ccccc3Br)c2c1	inconclusive: 100 µM [inhibitor, single point]
Cc1c(NC(=S)N/N=C/c2ccc(Br)cc2)c(=O)n(-c2ccccc2)n1C	inconclusive: 22.4 µM [inhibitor, single point]
COc1ccccc1CC(=O)Nc1ccc(-c2noc(COc3ccc(Br)cc3)n2)cc1	inconclusive: 70.8 µM [inhibitor, single point]
N#Cc1c(NC(=O)c2ccc(Cn3cc(Br)cn3)o2)sc2c1CCCCCC2	inconclusive: 56.2 µM [inhibitor, single point]
CCCCn1c(=O)[nH]c(=O)c2c1nc(-c1ccc(-c3ccccc3Br)o1)n2CCOC	inactive
O=C(CSCC(=O)OCC(=O)c1ccc(Br)cc1)Nc1ccc(Br)cc1	inconclusive: 708 µM [inhibitor, partial curve, poor fit]
CCOC(=O)C1CCCN(Cc2cc(Br)ccc2OC)C1 (stereo unspecified)	inconclusive: 89.1 µM [inhibitor, single point]
